US9745349B2 (JAPAN SCIENCE AND TECHNOLOGY AGENCY, priority 2012, dated 2017)

Test: general procedure: Fmoc solid-phase peptide synthesis; 2-chlorotrityl chloride resin; N,N'-diisopropylcarbodiimide / 1-hydroxybenzotriazole; HATU/DIPEA for cyclisatio
Details: whole synthesis

Substance cyclo-L-[Lys-Leu-Val-Phe-Phe] has an isolated mass of 0.31 mg.

Same assay, conditions: whole synthesis, scale of the general procedure 0.034 mmol

In order of falling isolated yield:
1. cyclo-D-[Lys-Leu-Val-(1-Nal)-Phe]  21%
2. cyclo-D-[Lys-Leu-Val-Phe(βPh)-Phe]  10.9%
3. cyclo-D-[Lys-Leu-Val-Phe-Phe]  5.2%
4. cyclo-D-[Lys-Leu-Val-(2-bi-Ph)Ala-Phe]  3.0%
5. cyclo-D-[Lys-Leu-Val-(3-bi-Ph)Ala-Phe]  2.7%
6. cyclo-D-[Lys-Leu-Ala-Phe-Phe]  2.5%
7. cyclo-D-[Lys-Leu-Val-Phe-Ala]  2.2%
8. cyclo-D-[Lys-Leu-Val-(4-(2-Py)-Ph)Ala-Phe]  2.2%
9. cyclo-D-[Lys-Leu-Val-(4-(4-Py)-Ph)Ala-Phe]  2.2%
10. cyclo-D-[Lys-Leu-Val-(4-bi-Ph)Ala-Phe]  1.9%
11. cyclo-D-[Lys-Ala-Val-Phe-Phe]  1.8%
12. cyclo-D-[Lys-Leu-Val-(4-(3-phenol)-Ph)Ala-Phe]  1.6%
13. cyclo-L-[Lys-Leu-Val-Phe-Phe]  1.4%
14. cyclo-D-[Lys-Leu-Val-(4-(3-Py)-Ph)Ala-Phe]  1.3%
15. cyclo-D-[Ala-Leu-Val-Phe-Phe] (ALVFF; cyclic, D-amino acids; cyclopeptide)  1.3%
16. cyclo-D-[Lys-Leu-Val-Ala-Phe]  0.4%
17. cyclo-D-[Lys-Leu-Val-(4-(5-pyrimidine)-Ph)Ala-Phe]  0.4%
